Assay: Composition of amniotic fluid cell-derived ECM by mass spectrometry (total spectra count)
Details: mass spectrometry, label = protein component; for Total Spectra Count Matrix A: amniotic fluid cell-derived ECM Matrix A; for Total Spectra Count Matrix B: amniotic fluid cell-derived ECM Matrix B; for Total Spectra Count Matrix C: amniotic fluid cell-derived ECM Matrix C; for Total Spectra Count Matrix D: amniotic fluid cell-derived ECM Matrix D

B1: Palladin (protein, UniProt Q8WX93 1-1383, looked up)
Palladin: MSGTSSHESFYDSLSDMQEESKNTDFFPGLSAFLSQEEINKSLDLARRAIADSETEDFDSEKEISQIFSTSPASLCEHPSHKETKLGEHASRRPQDNRSTPVQPLAEKQTKSISSPVSKRKPAMSPLLTRPSYIRSLRKAEKRGAKTPSTNVKPKTPHQRKGGPQSQLCDKAANLIEELTSIFKAAKPRNRSPNGESSSPDSGYLSPKNQPSALLSASASQSPMEDQGEMEREVKSPGARHCYQDNQDLAVPHNRKSHPQPHSALHFPAAPRFIQKLRSQEVAEGSRVYLECRVTGNPTPRVRWFCEGKELHNTPDIQIHCEGGDLHTLIIAEAFEDDTGRYTCLATNPSGSDTTSAEVFIEGASSTDSDSESLAFKSRAGAMPQAQKKTTSVSLTIGSSSPKTGVTTAVIQPLSVPVQQVHSPTSYLCRPDGTTTAYFPPVFTKELQNTAVAEGQVVVLECRVRGAPPLQVQWFRQGSEIQDSPDFRILQKKPRSTAEPEEICTLVIAETFPEDAGIFTCSARNDYGSATSTAQLVVTSANTENCSYESMGESNNDHFQHFPPPPPILETSSLELASKKPSEIQQVNNPELGLSRAALQMQFNAAERETNGVHPSRGVNGLINGKANSNKSLPTPAVLLSPTKEPPPLLAKPKLDPLKLQQLQNQIRLEQEAGARQPPPAPRSAPPSPPFPPPPAFPELAACTPPASPEPMSALASRSAPAMQSSGSFNYARPKQFIAAQNLGPASGHGTPASSPSSSSLPSPMSPTPRQFGRAPVPPFAQPFGAEPEAPWGSSSPSPPPPPPPVFSPTAAFPVPDVFPLPPPPPPLPSPGQASHCSSPATRFGHSQTPAAFLSALLPSQPPPAAVNALGLPKGVTPAGFPKKASRTARIASDEEIQGTKDAVIQDLERKLRFKEDLLNNGQPRLTYEERMARRLLGADSATVFNIQEPEEETANQEYKVSSCEQRLISEIEYRLERSPVDESGDEVQYGDVPVENGMAPFFEMKLKHYKIFEGMPVTFTCRVAGNPKPKIYWFKDGKQISPKSDHYTIQRDLDGTCSLHTTASTLDDDGNYTIMAANPQGRISCTGRLMVQAVNQRGRSPRSPSGHPHVRRPRSRSRDSGDENEPIQERFFRPHFLQAPGDLTVQEGKLCRMDCKVSGLPTPDLSWQLDGKPVRPDSAHKMLVRENGVHSLIIEPVTSRDAGIYTCIATNRAGQNSFSLELVVAAKEAHKPPVFIEKLQNTGVADGYPVRLECRVLGVPPPQIFWKKENESLTHSTDRVSMHQDNHGYICLLIQGATKEDAGWYTVSAKNEAGIVSCTARLDVYTQWHQQSQSTKPKKVRPSASRYAALSDQGLDIKAAFQPEANPSHLTLNTALVESEDL
With B1 the “Total Spectra Count Matrix A” value was 0, the “Total Spectra Count Matrix B” value was 7 and the “Total Spectra Count Matrix C” value was 0. For the same molecule, the “Total Spectra Count Matrix D” value was 6.

B2: Nucleolar complex protein 3 homolog (protein, UniProt Q8WTT2 1-800, looked up)
Nucleolar complex protein 3 …: MKARRNKKQIPSFRKLIKTSKVKLENKLKNKQFKQQSTLKKYRKEQRKLRQAVKDAVSKKPIPLENPKEKRPGKRIEREEEEEEEALPLDMMDEDDLQLMKDLGQRVSFLTRDLSSSEPVHAKKRKHERIIDKYEKIPRTLQTAPEKELIHLLPIKDKSGIIPQTREKPVTDSNKDEEDQEEERELEEEIIEDPIQELTIEEHLIERKKKLQEKKMHIAALASAILSDPENNIKKLKELRSMLMEQDPDVAVTVRKLVIVSLMELFKDITPSYKIRPLTEAEKSTKTRKETQKLREFEEGLVSQYKFYLENLEQMVKDWKQRKLKKSNVVSLKAYKGLAEVAVKSLCELLVALPHFNFHNNIIVLIVPLMNDMSKLISEMCCEAVKKLFKQDKLGQASLGVIKVISGFVKGRNYEVRPEMLKTFLCLRIKEVEVKKDTEDINKPKKFMTFKEKRKSLSRMQRKWKKAEEKLERELREAEASESTEKKLKLHTETLNIVFVTYFRILKKAQRSPLLPAVLEGLAKFAHLINVEFFDDLLVVLHTLIESGDLSYQESLHCVQTAFHILSGQGDVLNIDPLKFYTHLYKTLFKLHAGATNEGVEIVLQCLDVMLTKRRKQVSQQRALAFIKRLCTLALHVLPNSSIGILATTRILMHTFPKTDLLLDSESQGSGVFLPELDEPEYCNAQNTALWELHALRRHYHPIVQRFAAHLIAGAPSEGSGALKPELSRRSATELFEAYSMAEMTFNPPVESSNPKIKGKFLQGDSFLNEDLNQLIKRYSSEVATESPLDFTKYLKTSLH
In the case of B2, the “Total Spectra Count Matrix A” value is reported as 0, the “Total Spectra Count Matrix B” value is reported as 5 and the “Total Spectra Count Matrix C” value is reported as 0. For the same molecule, the “Total Spectra Count Matrix D” value was 0.

B3: Nucleoplasmin-3 (protein, UniProt O75607 2-178, looked up)
Nucleoplasmin-3: AAGTAAALAFLSQESRTRAGGVGGLRVPAPVTMDSFFFGCELSGHTRSFTFKVEEEDDAEHVLALTMLCLTEGAKDECNVVEVVARNHDHQEIAVPVANLKLSCQPMLSLDDFQLQPPVTFRLKSGSGPVRITGRHQIVTMSNDVSEEESEEEEEDSDEEEVELCPILPAKKQGGRP
In the case of B3, the “Total Spectra Count Matrix A” value is reported as 0, the “Total Spectra Count Matrix B” value is reported as 3 and the “Total Spectra Count Matrix C” value is reported as 0. For the same molecule, the “Total Spectra Count Matrix D” value was 0.

B4: Nucleolar transcription factor 1 (protein, UniProt P17480 1-764, looked up)
Nucleolar transcription …: MNGEADCPTDLEMAAPKGQDRWSQEDMLTLLECMKNNLPSNDSSKFKTTESHMDWEKVAFKDFSGDMCKLKWVEISNEVRKFRTLTELILDAQEHVKNPYKGKKLKKHPDFPKKPLTPYFRFFMEKRAKYAKLHPEMSNLDLTKILSKKYKELPEKKKMKYIQDFQREKQEFERNLARFREDHPDLIQNAKKSDIPEKPKTPQQLWYTHEKKVYLKVRPDATTKEVKDSLGKQWSQLSDKKRLKWIHKALEQRKEYEEIMRDYIQKHPELNISEEGITKSTLTKAERQLKDKFDGRPTKPPPNSYSLYCAELMANMKDVPSTERMVLCSQQWKLLSQKEKDAYHKKCDQKKKDYEVELLRFLESLPEEEQQRVLGEEKMLNINKKQATSPASKKPAQEGGKGGSEKPKRPVSAMFIFSEEKRRQLQEERPELSESELTRLLARMWNDLSEKKKAKYKAREAALKAQSERKPGGEREERGKLPESPKRAEEIWQQSVIGDYLARFKNDRVKALKAMEMTWNNMEKKEKLMWIKKAAEDQKRYERELSEMRAPPAATNSSKKMKFQGEPKKPPMNGYQKFSQELLSNGELNHLPLKERMVEIGSRWQRISQSQKEHYKKLAEEQQKQYKVHLDLWVKSLSPQDRAAYKEYISNKRKSMTKLRGPNPKSSRTTLQSKSESEEDDEEDEDDEDEDEEEEDDENGDSSEDGGDSSESSSEDESEDGDENEEDDEDEDDDEDDDEDEDNESEGSSSSSSSSGDSSDSDSN
For B4, the “Total Spectra Count Matrix A” value was 0, the “Total Spectra Count Matrix B” value was 2 and the “Total Spectra Count Matrix C” value was 0. The “Total Spectra Count Matrix D” value was 0.

B5: Nucleolar complex protein 4 homolog (protein, UniProt Q9BVI4 1-516, looked up)
Nucleolar complex protein 4 …: MEREPGAAGVRRALGRRLEAVLASRSEANAVFDILAVLQSEDQEEIQEAVRTCSRLFGALLERGELFVGQLPSEEMVMTGSQGATRKYKVWMRHRYHSCCNRLGELLGHPSFQVKELALSALLKFVQLEGAHPLEKSKWEGNYLFPRELFKLVVGGLLSPEEDQSLLLSQFREYLDYDDTRYHTMQAAVDAVARVTGQHPEVPPAFWNNAFTLLSAVSLPRREPTVSSFYVKRAELWDTWKVAHLKEHRRVFQAMWLSFLKHKLPLSLYKKVLLIVHDAILPQLAQPTLMIDFLTRACDLGGALSLLALNGLFILIHKHNLEYPDFYRKLYGLLDPSVFHVKYRARFFHLADLFLSSSHLPAYLVAAFAKRLARLALTAPPEALLMVLPFICNLLRRHPACRVLVHRPHGPELDADPYDPGEEDPAQSRALESSLWELQALQRHYHPEVSKAASVINQALSMPEVSIAPLLELTAYEIFERDLKKKGPEPVPLEFIPAQGLLGRPGELCAQHFTLS
With B5 the “Total Spectra Count Matrix A” value was 0, the “Total Spectra Count Matrix B” value was 5 and the “Total Spectra Count Matrix C” value was 0. For the same molecule, the “Total Spectra Count Matrix D” value was 0.

B6: PDZ and LIM domain protein 1 (protein, UniProt O00151 2-329, looked up)
PDZ and LIM domain protein 1: TTQQIDLQGPGPWGFRLVGGKDFEQPLAISRVTPGSKAALANLCIGDVITAIDGENTSNMTHLEAQNRIKGCTDNLTLTVARSEHKVWSPLVTEEGKRHPYKMNLASEPQEVLHIGSAHNRSAMPFTASPASSTTARVITNQYNNPAGLYSSENISNFNNALESKTAASGVEANSRPLDHAQPPSSLVIDKESEVYKMLQEKQELNEPPKQSTSFLVLQEILESEEKGDPNKPSGFRSVKAPVTKVAASIGNAQKLPMCDKCGTGIVGVFVKLRDRHRHPECYVCTDCGTNLKQKGHFFVEDQIYCEKHARERVTPPEGYEVVTVFPK
In the case of B6, the “Total Spectra Count Matrix A” value is reported as 0, the “Total Spectra Count Matrix B” value is reported as 0 and the “Total Spectra Count Matrix C” value is reported as 0. For the same molecule, the “Total Spectra Count Matrix D” value was 4.

B7: Nucleolar protein 58 (protein, UniProt Q9Y2X3 1-529, looked up)
Nucleolar protein 58: MLVLFETSVGYAIFKVLNEKKLQEVDSLWKEFETPEKANKIVKLKHFEKFQDTAEALAAFTALMEGKINKQLKKVLKKIVKEAHEPLAVADAKLGGVIKEKLNLSCIHSPVVNELMRGIRSQMDGLIPGVEPREMAAMCLGLAHSLSRYRLKFSADKVDTMIVQAISLLDDLDKELNNYIMRCREWYGWHFPELGKIISDNLTYCKCLQKVGDRKNYASAKLSELLPEEVEAEVKAAAEISMGTEVSEEDICNILHLCTQVIEISEYRTQLYEYLQNRMMAIAPNVTVMVGELVGARLIAHAGSLLNLAKHAASTVQILGAEKALFRALKSRRDTPKYGLIYHASLVGQTSPKHKGKISRMLAAKTVLAIRYDAFGEDSSSAMGVENRAKLEARLRTLEDRGIRKISGTGKALAKTEKYEHKSEVKTYDPSGDSTLPTCSKKRKIEQVDKEDEITEKKAKKAKIKVKVEEEEEEKVAEEEETSVKKKKKRGKKKHIKEEPLSEEEPCTSTAIASPEKKKKKKKKRENED
In the case of B7, the “Total Spectra Count Matrix A” value is reported as 0, the “Total Spectra Count Matrix B” value is reported as 6 and the “Total Spectra Count Matrix C” value is reported as 0. For the same molecule, the “Total Spectra Count Matrix D” value was 0.

B8: Peptidyl-prolyl cis-trans isomerase FKBP3 (protein, UniProt Q00688 2-224, looked up)
Peptidyl-prolyl cis-trans …: AAAVPQRAWTVEQLRSEQLPKKDIIKFLQEHGSDSFLAEHKLLGNIKNVAKTANKDHLVTAYNHLFETKRFKGTESISKVSEQVKNVKLNEDKPKETKSEETLDEGPPKYTKSVLKKGDKTNFPKKGDVVHCWYTGTLQDGTVFDTNIQTSAKKKKNAKPLSFKVGVGKVIRGWDEALLTMSKGEKARLEIEPEWAYGKKGQPDAKIPPNAKLTFEVELVDID
For B8, the “Total Spectra Count Matrix A” value was 0, the “Total Spectra Count Matrix B” value was 8 and the “Total Spectra Count Matrix C” value was 0. The “Total Spectra Count Matrix D” value was 0.
